Here are results for 7 compounds from the supplement of paper PMC10689618.

Each structure is given as a SMILES string. Counter-ions that a name gives are not always drawn. The list shows a part of the results. Repeats are few or missing, and single values can be far off.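 Primary human fetal astrocytes engulfed labelled rat cortical synaptosomes, measured as a red/green ratio corrected for calcein live-cell signal and scaled to the plate median. Toxicity meant calcein falling over 30%; decreased phagocytosis meant below 70% of median above 5 µM.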

What all share (conditions): 24 h
For assay [1], the system named is Human fetal astrocytes. Kind of assay: loss of total cells relative to no-compound high-control median (toxicity); higher = more toxic (fewer cells).
In assay [2] the test system is Human fetal astrocytes. The description is as above. The source holds these as a separate data set.
Assay [3] concerns Human fetal astrocytes. Description: synaptosome phagocytosis (pHrodo/calcein intensity ratio) relative to plate median of data wells; higher = more phagocytosis.
Assay [4] deals with Human fetal astrocytes. The assay is described as above. The source holds these as a separate data set.

On to `CN(C)C(=O)C(CCN1CCC(O)(c2ccc(Cl)cc2)CC1)(c1ccccc1)c1ccccc1` [Loperamide hydrochloride], for which the “loss of total cells” value with Human fetal astrocytes [1] (1.39 µM) was -23.2%; in the assay with Human fetal astrocytes [1] (2.78 µM), -0.5%; with Human fetal astrocytes [1] (5.56 µM), 0.5%; in the assay on Human fetal astrocytes [1] (11.11 µM), 0%; with Human fetal astrocytes [1] (22.22 µM) it was 15.9%; with Human fetal astrocytes [2] (1.39 µM) it was -38.2%. Also, the “loss of total cells” value in the assay on Human fetal astrocytes [2] (2.78 µM) is -14.3%; in the assay on Human fetal astrocytes [2] (5.56 µM) it was 0.9%; in the assay on Human fetal astrocytes [2] (11.11 µM) it was -34.4%; in the assay with Human fetal astrocytes [2] (22.22 µM), -0.6%. Further, the synaptosome phagocytosis was 65.1% in the assay with Human fetal astrocytes [3] (1.39 µM); 66.8% in the assay with Human fetal astrocytes [3] (2.78 µM); 89.3% in the assay on Human fetal astrocytes [3] (5.56 µM); 96.6% in the assay with Human fetal astrocytes [3] (11.11 µM); 30.4% in the assay with Human fetal astrocytes [3] (22.22 µM); 75.7% in the assay on Human fetal astrocytes [4] (1.39 µM). Also, the synaptosome phagocytosis is 75.3% in the assay with Human fetal astrocytes [4] (2.78 µM), 69.4% in the assay on Human fetal astrocytes [4] (5.56 µM), 69.9% with Human fetal astrocytes [4] (11.11 µM) and 71.2% in the assay on Human fetal astrocytes [4] (22.22 µM).

`NNc1nncc2ccccc12` [Hydralazine hydrochloride]: the “loss of total cells” value in the assay on Human fetal astrocytes [1] (1.39 µM) is 2.9%; with Human fetal astrocytes [1] (2.78 µM), -11.1%; in the assay with Human fetal astrocytes [1] (5.56 µM), -3.3%; in the assay on Human fetal astrocytes [1] (11.11 µM) it was -10.3%; with Human fetal astrocytes [1] (22.22 µM), 2.4%; in the assay with Human fetal astrocytes [2] (1.39 µM), -2.1%. In addition, the “loss of total cells” value is -24.7% in the assay on Human fetal astrocytes [2] (2.78 µM), -8.4% with Human fetal astrocytes [2] (5.56 µM), -8.4% in the assay with Human fetal astrocytes [2] (11.11 µM) and -0.9% with Human fetal astrocytes [2] (22.22 µM). The synaptosome phagocytosis with Human fetal astrocytes [3] (1.39 µM) was 92.1%; in the assay with Human fetal astrocytes [3] (2.78 µM) it was 108%; in the assay on Human fetal astrocytes [3] (5.56 µM) it was 108%; in the assay with Human fetal astrocytes [3] (11.11 µM) it was 85.6%; in the assay on Human fetal astrocytes [3] (22.22 µM), 59%; in the assay on Human fetal astrocytes [4] (1.39 µM) it was 126%. In addition, the synaptosome phagocytosis is 106% in the assay on Human fetal astrocytes [4] (2.78 µM), 100% with Human fetal astrocytes [4] (5.56 µM), 114% with Human fetal astrocytes [4] (11.11 µM) and 118% in the assay on Human fetal astrocytes [4] (22.22 µM).

As to `OC(CCN1CCCCC1)(c1ccccc1)C1CCCCC1` (stereo not given) [Trihexyphenidyl hydrochloride], the “loss of total cells” value in the assay on Human fetal astrocytes [1] (1.39 µM) was -10.2%; in the assay on Human fetal astrocytes [1] (2.78 µM), -12.9%; in the assay with Human fetal astrocytes [1] (5.56 µM), -9%; in the assay on Human fetal astrocytes [1] (11.11 µM), -1.9%; in the assay with Human fetal astrocytes [1] (22.22 µM), -2.5%; with Human fetal astrocytes [2] (1.39 µM) it was 6.2%. Besides, the “loss of total cells” value was -5.1% in the assay with Human fetal astrocytes [2] (2.78 µM), -9.1% in the assay on Human fetal astrocytes [2] (5.56 µM), -13.5% with Human fetal astrocytes [2] (11.11 µM) and 20.4% in the assay on Human fetal astrocytes [2] (22.22 µM). In addition, the synaptosome phagocytosis in the assay with Human fetal astrocytes [3] (1.39 µM) was 99%; with Human fetal astrocytes [3] (2.78 µM), 106%; in the assay with Human fetal astrocytes [3] (5.56 µM), 117%; in the assay with Human fetal astrocytes [3] (11.11 µM) it was 88%; with Human fetal astrocytes [3] (22.22 µM), 95.4%; in the assay on Human fetal astrocytes [4] (1.39 µM), 97.5%. The synaptosome phagocytosis in the assay with Human fetal astrocytes [4] (2.78 µM) was 92.9%; in the assay with Human fetal astrocytes [4] (5.56 µM) it was 98.6%; in the assay with Human fetal astrocytes [4] (11.11 µM), 82.3%; with Human fetal astrocytes [4] (22.22 µM) it was 91.6%.

On to `CNCCC(Oc1ccc(C(F)(F)F)cc1)c1ccccc1` (stereo not given) [Fluoxetine hydrochloride], for which the “loss of total cells” value was -4.6% in the assay on Human fetal astrocytes [1] (1.39 µM); -28.2% with Human fetal astrocytes [1] (2.78 µM); 5.8% in the assay with Human fetal astrocytes [1] (5.56 µM); -16.6% in the assay on Human fetal astrocytes [1] (11.11 µM); 4% with Human fetal astrocytes [1] (22.22 µM); -32.3% with Human fetal astrocytes [2] (1.39 µM). Also, the “loss of total cells” value in the assay with Human fetal astrocytes [2] (2.78 µM) was determined as 26.2%; in the assay on Human fetal astrocytes [2] (5.56 µM), 13%; in the assay on Human fetal astrocytes [2] (11.11 µM) it was 48.9%; in the assay with Human fetal astrocytes [2] (22.22 µM) it was 40.8%. The synaptosome phagocytosis in the assay on Human fetal astrocytes [3] (1.39 µM) is 25.4%; in the assay with Human fetal astrocytes [3] (2.78 µM) it was 59.1%; with Human fetal astrocytes [3] (5.56 µM), 52.4%; in the assay with Human fetal astrocytes [3] (11.11 µM), 65.3%; with Human fetal astrocytes [3] (22.22 µM), 20.2%; with Human fetal astrocytes [4] (1.39 µM) it was 117%. For the same compound, the synaptosome phagocytosis in the assay with Human fetal astrocytes [4] (2.78 µM) is 86.4%; with Human fetal astrocytes [4] (5.56 µM), 93.1%; in the assay on Human fetal astrocytes [4] (11.11 µM) it was 84.4%; with Human fetal astrocytes [4] (22.22 µM) it was 72.5%.

Regarding `C=CCc1ccccc1OCC(O)CNC(C)C` (stereo not given) [Alprenolol hydrochloride], the “loss of total cells” value with Human fetal astrocytes [1] (1.39 µM) was 8.1%; in the assay on Human fetal astrocytes [1] (2.78 µM) it was -15.3%; with Human fetal astrocytes [1] (5.56 µM), 2.3%; with Human fetal astrocytes [1] (11.11 µM), -10.3%; in the assay on Human fetal astrocytes [1] (22.22 µM), 5.6%; in the assay with Human fetal astrocytes [2] (1.39 µM), 17.8%. Moreover, the “loss of total cells” value with Human fetal astrocytes [2] (2.78 µM) is -2.7%; with Human fetal astrocytes [2] (5.56 µM), 1.5%; in the assay on Human fetal astrocytes [2] (11.11 µM), 12.3%; in the assay on Human fetal astrocytes [2] (22.22 µM) it was 6.3%. Moreover, the synaptosome phagocytosis in the assay with Human fetal astrocytes [3] (1.39 µM) was 141%; in the assay with Human fetal astrocytes [3] (2.78 µM) it was 104%; with Human fetal astrocytes [3] (5.56 µM), 112%; with Human fetal astrocytes [3] (11.11 µM) it was 58%; with Human fetal astrocytes [3] (22.22 µM) it was 90.5%; in the assay on Human fetal astrocytes [4] (1.39 µM), 96.2%. Also, the synaptosome phagocytosis in the assay with Human fetal astrocytes [4] (2.78 µM) was 117%; in the assay with Human fetal astrocytes [4] (5.56 µM), 102%; with Human fetal astrocytes [4] (11.11 µM) it was 62.6%; with Human fetal astrocytes [4] (22.22 µM) it was 97.4%.

Regarding `Fc1ccc([C@@H]2CCNC[C@H]2COc2ccc3c(c2)OCO3)cc1` [Paroxetine hydrochloride hemihydrate (MW = 374.83)], the “loss of total cells” value in the assay on Human fetal astrocytes [1] (1.39 µM) is -12.1%; in the assay with Human fetal astrocytes [1] (2.78 µM), -24.4%; with Human fetal astrocytes [1] (5.56 µM) it was -4.1%; with Human fetal astrocytes [1] (11.11 µM), -13.9%; in the assay with Human fetal astrocytes [1] (22.22 µM) it was 13.9%; in the assay on Human fetal astrocytes [2] (1.39 µM), -28.2%. Besides, the “loss of total cells” value was 38.9% in the assay on Human fetal astrocytes [2] (2.78 µM), 11.8% with Human fetal astrocytes [2] (5.56 µM), 54.8% in the assay with Human fetal astrocytes [2] (11.11 µM) and 45.2% in the assay on Human fetal astrocytes [2] (22.22 µM). The synaptosome phagocytosis in the assay with Human fetal astrocytes [3] (1.39 µM) is 59%; with Human fetal astrocytes [3] (2.78 µM), 131%; in the assay on Human fetal astrocytes [3] (5.56 µM) it was 70.9%; in the assay on Human fetal astrocytes [3] (11.11 µM) it was 102%; with Human fetal astrocytes [3] (22.22 µM), 52.6%; with Human fetal astrocytes [4] (1.39 µM), 89.7%. The synaptosome phagocytosis is 85.8% with Human fetal astrocytes [4] (2.78 µM), 69.6% with Human fetal astrocytes [4] (5.56 µM), 68.5% with Human fetal astrocytes [4] (11.11 µM) and 54.7% in the assay on Human fetal astrocytes [4] (22.22 µM).

For the compound `CC1=C(C(=O)O)N2C(=O)[C@@H](NC(=O)[C@H](N)c3ccccc3)[C@H]2SC1` [Cephalexin hydrate], the “loss of total cells” value is -13.2% with Human fetal astrocytes [1] (1.39 µM); -19.8% with Human fetal astrocytes [1] (2.78 µM); -22.6% with Human fetal astrocytes [1] (5.56 µM); -26.5% in the assay on Human fetal astrocytes [1] (11.11 µM); -10.9% in the assay on Human fetal astrocytes [1] (22.22 µM); -16.6% in the assay on Human fetal astrocytes [2] (1.39 µM). The “loss of total cells” value is -19.2% in the assay with Human fetal astrocytes [2] (2.78 µM), 8.7% with Human fetal astrocytes [2] (5.56 µM), -11.7% in the assay on Human fetal astrocytes [2] (11.11 µM) and 13.6% in the assay on Human fetal astrocytes [2] (22.22 µM). In addition, the synaptosome phagocytosis is 98.5% in the assay with Human fetal astrocytes [3] (1.39 µM); 96.2% in the assay with Human fetal astrocytes [3] (2.78 µM); 106% with Human fetal astrocytes [3] (5.56 µM); 113% in the assay on Human fetal astrocytes [3] (11.11 µM); 106% in the assay on Human fetal astrocytes [3] (22.22 µM); 99.6% in the assay on Human fetal astrocytes [4] (1.39 µM). Also, the synaptosome phagocytosis was 87.8% with Human fetal astrocytes [4] (2.78 µM), 138% with Human fetal astrocytes [4] (5.56 µM), 88.1% in the assay with Human fetal astrocytes [4] (11.11 µM) and 90.3% in the assay with Human fetal astrocytes [4] (22.22 µM).
